Laboratory results reported in PubChem BioAssay AID720535 (National Center for Advancing Translational Sciences (NCATS), 2013).
About 420 (26%) of roughly 1,600 compounds were called active. This list was built around the results that the source calls inconclusive (neither active nor inactive); the mix of calls is not that of the screen. The call rests on the fitted dose curve; in most records, active means well fitted inhibition curve with a large enough effect; inconclusive means small, poorly fitted or top-dose-only effect; inactive means flat fitted curve, though single readings scatter. A potency beside an inconclusive call is a rough fit, not a confirmed value.

Test: qHTS for Inhibitors of TGF-b: Cytotox Counterscreen for Cherry Picks; further: nearly all actives have a fitted effect of over 70% in size
Details: HepG2 CAGA-GFP viability, ATP luminescence, 18 h, cells stimulated with TGF-beta, 500 pg/mL; activity, negative = cytotoxicity: at 46.1 µM (top of the series)
In short: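 In this viability counterscreen, HepG2 CAGA-GFP cells in low-serum (1% FBS) DMEM were exposed to compounds plus TGF-beta (500 pg/mL final) for 18 h at 37 °C; ATP content measured by luminescence.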
Potency means the concentration at half of the fitted maximal effect.

SMILES	Potency	activity, negative = cytotoxicity
O=C(Nc1ccc(F)cc1)Nc1ccc(N2CCCC2)c(S(=O)(=O)Nc2ccccc2Cl)c1	active: 7.31 µM	–
CCN(CC)CC(C)(C)C(=O)/C=C/c1ccc(/C=C/C(=O)C(C)(C)CN(CC)CC)cc1	active: 3.26 µM	–
CC1=C(C(=O)N(C(C)C)C(C)C)CC(CC(=O)NC(c2ccccc2)c2ccccc2)C(=O)N1Cc1ccc(C(C)(C)C)cc1 (configuration not stated)	–	inactive: -27.2%
NC(=O)c1ccsc1NC(=O)c1ccc(S(=O)(=O)N2CCCc3ccccc32)cc1	inconclusive: 18.4 µM [inhibitor, single point]	–
O=C1N[C@@H](c2ccccc2)COC(=O)[C@@H](Cc2ccc(F)cc2)C/C=C\C[C@@H]1CC(=O)N(CCO)Cc1ccccc1	inconclusive: 18.4 µM [inhibitor, single point]	–
CCN1CCN(S(=O)(=O)c2ccc(Cl)c(C(=O)N(C)CCOc3ccc(Cl)cc3)c2)CC1	inconclusive: 29.1 µM [inhibitor, single point]	–
Fc1ccc(-c2csc3ncnc(N4CCc5ccccc5C4)c23)cc1	inconclusive: 23.1 µM [inhibitor, single point]	–
C[C@]12c3[nH]c4ccc(Cl)cc4c3CCN1C(=O)[C@@H](CC(=O)NCc1cccc(C(F)(F)F)c1)C[C@@H]2C(=O)N1CCOCC1	–	inactive: -29.2%
COc1cc(C2c3cc4c(cc3OC(NCc3ccccc3)C2C)OCO4)cc(OC)c1OC (configuration not stated)	–	inactive: 0.3%
Cc1cc(C)nc(S/C=C/C(=O)c2ccccc2F)n1	active: 20.6 µM	–
O=C(Nc1cccc(Cl)c1)Nc1csc([N+](=O)[O-])c1	active: 16.4 µM	–
C[C@]12c3[nH]c4cc(-c5ccco5)ccc4c3CCN1C(=O)[C@@H](CC(=O)NCC13CC4CC(CC(C4)C1)C3)C[C@@H]2C(=O)N1CCOCC1	inconclusive: 13 µM [inhibitor, partial curve]	–
O=C(Nc1ccc(Cl)cc1)N(Cc1nc2ccccc2c(=O)[nH]1)Cc1cccs1	inconclusive: 20.6 µM [inhibitor, single point]	–
O=C(Oc1c(CN2CCOCC2)cc(Cl)c2cccnc12)c1ccccc1	inconclusive: 4.11 µM [inhibitor, full curve]	–
O=C(C1CCC(=O)N(C2CCCCCC2)C1)N1CCN(c2ccccc2Cl)CC1 (configuration not stated)	–	inactive: -19.8%
Clc1ccc2nc(-c3ccco3)c(Cc3ccccc3)n2c1	inconclusive: 18.4 µM [inhibitor, single point]	–
O=C(NC[C@@H]1CC[C@@H](Cc2ccc(-c3ccccc3)cc2)O1)Nc1ccc(Br)cc1	–	inactive: -16.1%
O=C(NC(c1ccccc1)c1ccc2ccccc2n1)C1CCN(CCOc2ccc(Cl)cc2Cl)CC1 (configuration not stated)	active: 18.4 µM	–
COC(=O)c1ccc(C(=O)OC)c(NC(=O)CSc2cccc[n+]2[O-])c1	–	inactive: 5.68%
COc1ccc(Cl)cc1Cn1c(C)c(C(=O)NCc2ccc(F)cc2)sc1=O	–	inactive: -21.1%
COc1ccc(C2/C=C\CN(C(=O)C3CC3)[C@H](Cc3ccccc3)C(=O)N2Cc2ccc(F)cc2)cc1 (some centres not stated)	–	inactive: -24.8%
Cc1ccc(S(=O)(=O)Nc2ccc3c(c2)C(=O)N([C@H](C)CO)C[C@@H](C)[C@@H](CN(C)C(=O)Nc2cccc4ccccc24)O3)cc1	–	inactive: -28.8%
Nc1ccccc1C(=O)NC(=O)Nc1ccc(Oc2ncc(Br)cn2)c(Cl)c1	–	inactive: -8.1%

SMILES	Potency	activity, negative = cytotoxicity
Cn1c(C(=O)N2CCCC(C(=O)NCCCSC3CCCCC3)C2)cc2sccc21 (configuration not stated)	inconclusive: 18.4 µM [inhibitor, partial curve, poor fit]	–
Cc1cccc(NC(=O)c2nc(S(=O)(=O)Cc3ccccc3)ncc2Cl)c1	active: 4.61 µM	–
CCCCn1nnnc1C(c1cccc2ccccc12)N1CCN(C/C=C/c2ccccc2)CC1 (configuration not stated)	inconclusive: 20.6 µM [inhibitor, single point]	–
CC(NC1=CC(=O)c2cccnc2C1=O)C(O)c1ccccc1 (configuration not stated)	active: 5.17 µM	–
O=C(CN(CCc1ccccc1)S(=O)(=O)c1ccc(Cl)cc1)N/N=C/c1ccc2c(c1)OCO2	–	inactive: -23.9%
CCOc1ccc(CCN2C(=S)N([C@@H](CC(C)C)CN3CCC[C@@H]3CN3C(=S)NC[C@@H]3CC(C)C)C[C@@H]2Cc2ccc(O)cc2)cc1	inconclusive: 18.4 µM [inhibitor, partial curve]	–
FC(F)(F)c1ccccc1Cc1c(-c2ccccc2)nc2c3ccccc3ccn12	–	inactive: -27.2%
Brc1ccc2nc(-c3ccccc3)c(Cc3ccccc3)n2c1	inconclusive: 29.1 µM [inhibitor, single point]	–
COc1ccc(NCc2nc3ccccc3n2CCOc2ccc(C)cc2)cc1	inconclusive: 18.4 µM [inhibitor, single point]	–
CCn1c(C(=O)N2CCCC(C(=O)NCCc3ccc(C)cc3)C2)cc2sccc21 (configuration not stated)	–	inactive: -21%
COc1ccc(C)cc1S(=O)(=O)N(CC(=O)NCc1ccc(Cl)cc1)Cc1ccccc1	inconclusive: 29.1 µM [inhibitor, single point]	–
CCc1nc2c(OCc3cc(Cl)cc(Cl)c3)cccn2c1N(C)C(=O)c1ccc(OC)cc1	inconclusive: 29.1 µM [inhibitor, single point]	–
CC(C)n1ncc2c(C(=O)N3CCN(Cc4ccc(Cl)s4)CC3)cc(C3CC3)nc21	–	inactive: -28.6%
Cc1cccc(NS(=O)(=O)c2ccc(C)c(C(=O)NC3CCN(Cc4ccccc4)CC3)c2)c1	–	inactive: -27.7%
CC1=C(C(=O)N(C(C)C)C(C)C)CC(CC(=O)NCCCCc2ccccc2)C(=O)N1Cc1ccc(F)cc1 (configuration not stated)	–	inactive: -6.01%
CCOC(=O)N1CCN(Cc2ccc(O)c3ncccc23)CC1	inconclusive: 29.1 µM [inhibitor, single point]	–
O=C(c1cccs1)N(Cc1nc2sc3c(c2c(=O)[nH]1)CCCC3)C1CCCC1	inconclusive: 2.91 µM [inhibitor, full curve]	–
CCc1ccc(-c2cc(C)no2)cc1S(=O)(=O)N1CCCN(Cc2ccc(F)cc2)C1	inconclusive: 29.1 µM [inhibitor, single point]	–
CCCOc1ccc(CSc2nc3ccccc3[nH]2)cc1	inconclusive: 9.2 µM [inhibitor, partial curve]	–
NC(=O)CC(NC(=O)c1ccc(Br)cc1)c1ccc(N2CCC(Cc3ccccc3)CC2)c([N+](=O)[O-])c1 (configuration not stated)	active: 20.6 µM	–
CCN1CCN(c2ccc(S(=O)(=O)N3CCCCC3)cc2NC(=O)c2ccc([N+](=O)[O-])s2)CC1	inconclusive: 23.1 µM [inhibitor, single point]	–
CN1CCN(Cc2cc(COCc3ccccc3)c3cccnc3c2O)CC1	inconclusive: 1.84 µM [inhibitor, full curve]	–
N=c1n(CCN2CCCCC2)c2ccccc2n1CC(=O)c1cccs1	inconclusive: 20.6 µM [inhibitor, single point]	–

Shown with bars between the fields: part of the list above.
SMILES | Potency | activity, negative = cytotoxicity
CCN(CC)CC(C)(C)C(=O)/C=C/c1ccc(/C=C/C(=O)C(C)(C)CN(CC)CC)cc1 | active: 3.26 µM | –
Clc1ccc2nc(-c3ccco3)c(Cc3ccccc3)n2c1 | inconclusive: 18.4 µM [inhibitor, single point] | –
COc1ccc(C2/C=C\CN(C(=O)C3CC3)[C@H](Cc3ccccc3)C(=O)N2Cc2ccc(F)cc2)cc1 (some centres not stated) | – | inactive: -24.8%
Cc1ccc(S(=O)(=O)Nc2ccc3c(c2)C(=O)N([C@H](C)CO)C[C@@H](C)[C@@H](CN(C)C(=O)Nc2cccc4ccccc24)O3)cc1 | – | inactive: -28.8%
Nc1ccccc1C(=O)NC(=O)Nc1ccc(Oc2ncc(Br)cn2)c(Cl)c1 | – | inactive: -8.1%
Cn1c(C(=O)N2CCCC(C(=O)NCCCSC3CCCCC3)C2)cc2sccc21 (configuration not stated) | inconclusive: 18.4 µM [inhibitor, partial curve, poor fit] | –
CCOc1ccc(CCN2C(=S)N([C@@H](CC(C)C)CN3CCC[C@@H]3CN3C(=S)NC[C@@H]3CC(C)C)C[C@@H]2Cc2ccc(O)cc2)cc1 | inconclusive: 18.4 µM [inhibitor, partial curve] | –
FC(F)(F)c1ccccc1Cc1c(-c2ccccc2)nc2c3ccccc3ccn12 | – | inactive: -27.2%
Brc1ccc2nc(-c3ccccc3)c(Cc3ccccc3)n2c1 | inconclusive: 29.1 µM [inhibitor, single point] | –
CCn1c(C(=O)N2CCCC(C(=O)NCCc3ccc(C)cc3)C2)cc2sccc21 (configuration not stated) | – | inactive: -21%
CCc1nc2c(OCc3cc(Cl)cc(Cl)c3)cccn2c1N(C)C(=O)c1ccc(OC)cc1 | inconclusive: 29.1 µM [inhibitor, single point] | –
CC(C)n1ncc2c(C(=O)N3CCN(Cc4ccc(Cl)s4)CC3)cc(C3CC3)nc21 | – | inactive: -28.6%
Cc1cccc(NS(=O)(=O)c2ccc(C)c(C(=O)NC3CCN(Cc4ccccc4)CC3)c2)c1 | – | inactive: -27.7%
O=C(c1cccs1)N(Cc1nc2sc3c(c2c(=O)[nH]1)CCCC3)C1CCCC1 | inconclusive: 2.91 µM [inhibitor, full curve] | –
CN1CCN(Cc2cc(COCc3ccccc3)c3cccnc3c2O)CC1 | inconclusive: 1.84 µM [inhibitor, full curve] | –
N=c1n(CCN2CCCCC2)c2ccccc2n1CC(=O)c1cccs1 | inconclusive: 20.6 µM [inhibitor, single point] | –

Continued.

SMILES	Potency	activity, negative = cytotoxicity
COc1ccc(Cc2c(-c3ccccc3)nc3ccc(Br)cn23)c(C)c1	inconclusive: 20.6 µM [inhibitor, single point]	–
CC(C)(C)c1ccc(/C=C2\SC(=O)N(CCNC(=O)c3cccc(S(=O)(=O)N4CCOCC4)c3)C2=O)cc1	inconclusive: 25.9 µM [inhibitor, single point]	–
Cc1csc2c(N3CCN(C(=O)c4ccc(C(C)(C)C)cc4)CC3)ncnc12	–	inactive: -21%
Cc1ccc2c(C)ccc(O)c2n1	–	inactive: 0.11%
COc1cc2c(c(OC)c1OC)-c1ccc(OC)c(=O)cc1C(NC(=O)c1ccccc1)CC2 (configuration not stated)	–	inactive: 0.235%
COc1ccc(OC)c(NC(=O)c2nc(S(=O)(=O)Cc3ccccc3)ncc2Cl)c1	active: 6.51 µM	–
O=C(Nc1ccc(N2CCN(c3ncccc3C(F)(F)F)CC2)nc1)c1cccs1	inconclusive: 29.1 µM [inhibitor, single point]	–
O=C(N/N=C/c1ccc[nH]1)c1ccc(COc2cccc3cccnc23)cc1	inconclusive: 9.2 µM [inhibitor, partial curve]	–
Nc1nnnn1/N=C/C(Br)=C/c1ccccc1	inconclusive: 23.1 µM [inhibitor, single point]	–
Cc1ccc2nc(-c3ccco3)c(CC3CCCCC3)n2c1	inconclusive: 25.9 µM [inhibitor, single point]	–
Cc1ccc(-c2csc(NC(=O)CCNC(=O)c3ccc(Cl)cc3)n2)cc1	–	inactive: 2.2%
Cc1ccc(NC(=O)CNc2ccc(Cl)c(Cl)c2)cc1S(=O)(=O)N(C)C	inconclusive: 10.3 µM [inhibitor, partial curve]	–
COc1ccc(S(=O)(=O)/N=C2\C=C(Nc3ccc(O)cc3)C(=O)c3ccccc32)cc1	active: 4.11 µM	–
COc1cc2c(c(OC)c1OC)-c1ccc(SC)c(=O)cc1C(NC=O)CC2 (configuration not stated)	active: 23.1 µM	–
COc1ccc(CNC(=O)[C@@H]2CC=C[C@@H]3CCN(Cc4ccc(Cl)c(Cl)c4)C(=O)[C@@H]32)cc1	inconclusive: 20.6 µM [inhibitor, single point]	–
Cc1ccc(NS(=O)(=O)c2ccc(N3CCN(c4ccc(O)cc4)CC3)c([N+](=O)[O-])c2)c(C)c1	inconclusive: 18.4 µM [inhibitor, single point]	–
CCCCSc1nc(C)cc(SCC(=O)N/N=C/c2cccc(OC)c2O)n1	inconclusive: 3.66 µM [inhibitor, single point]	–
OCC1OC(n2ccc3c2ncn2ncnc32)C(O)C1O (configuration not stated)	active: 0.517 µM	–
Cc1ccccc1CS(=O)(=O)c1ncc(Cl)c(C(=O)Nc2ccc(F)cc2)n1	inconclusive: 23.1 µM [inhibitor, single point]	–
O=[N+]([O-])c1cccc2c(N3CCCC3)ccnc12	active: 16.4 µM	–
CN(c1ccccc1)S(=O)(=O)c1ccc(NC(=O)c2nc(S(C)(=O)=O)ncc2Cl)cc1	active: 4.11 µM	–
